The other results are listed elsewhere or left out.
Assays:
Assay in all cases: protein microarray (ProtoArray v5.0), streptavidin-Alexa Fluor 647
Details in all cases: 3'-biotin; 20 mM Tris (pH 7.5), 5 mM MgCl2, 100 mM KCl, 0.1% Tween-20, A/T-rich and random oligonucleotide blockers; temperature not stated; high values mean tight binding
[1] = test system: C7orf24 (human)
[2] = test system: C7orf36 (human)
[3] = test system: C7orf41 (human)
[4] = test system: C8orf43 (human)
[5] = test system: C8orf47 (human)
[6] = test system: C8orf76 (human)
[7] = test system: C9orf46 (human)
[8] = test system: C9orf71 (human)
[9] = test system: C9orf95 (human)
[10] = test system: CA2 (human)

GGTGACAGGGGTATGGGGAGGGG [G4-2 biotinylated (Ct1)]
binding signal [1]: -0.366 z-score
binding signal [2]: -0.399 z-score
binding signal [3]: -0.404 z-score
binding signal [4]: -0.384 z-score
binding signal [5]: -0.404 z-score
binding signal [6]: -0.369 z-score
binding signal [7]: -0.374 z-score
binding signal [8]: -0.363 z-score
binding signal [9]: -0.374 z-score
binding signal [10]: -0.383 z-score

— article PMC5996148
